Measured values taken from publication PMC12663137 (Nature Communications, 2025).

Amino acid sequences for entries named in this document (tags omitted).
UniProt Q7L0J3, whole entry C297A: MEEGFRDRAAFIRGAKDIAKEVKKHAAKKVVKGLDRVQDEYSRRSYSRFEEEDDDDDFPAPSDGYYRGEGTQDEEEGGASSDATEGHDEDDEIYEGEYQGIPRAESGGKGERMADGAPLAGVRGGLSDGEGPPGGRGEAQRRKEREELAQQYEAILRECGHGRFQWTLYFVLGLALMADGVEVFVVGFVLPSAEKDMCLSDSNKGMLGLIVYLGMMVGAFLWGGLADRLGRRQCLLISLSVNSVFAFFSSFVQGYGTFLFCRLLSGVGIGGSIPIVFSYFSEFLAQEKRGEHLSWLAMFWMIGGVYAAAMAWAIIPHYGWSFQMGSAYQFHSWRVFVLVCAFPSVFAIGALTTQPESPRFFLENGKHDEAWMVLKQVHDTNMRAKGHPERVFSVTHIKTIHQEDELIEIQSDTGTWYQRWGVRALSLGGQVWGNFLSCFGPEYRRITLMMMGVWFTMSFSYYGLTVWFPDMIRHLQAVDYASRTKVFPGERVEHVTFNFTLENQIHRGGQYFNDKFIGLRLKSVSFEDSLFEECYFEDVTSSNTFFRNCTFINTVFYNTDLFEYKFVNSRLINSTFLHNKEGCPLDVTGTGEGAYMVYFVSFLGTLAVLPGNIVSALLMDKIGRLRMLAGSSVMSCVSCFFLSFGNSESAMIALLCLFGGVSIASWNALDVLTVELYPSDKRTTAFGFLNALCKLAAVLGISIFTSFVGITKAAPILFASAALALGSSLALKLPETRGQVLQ
UniProt Q7L0J3, whole entry D670A: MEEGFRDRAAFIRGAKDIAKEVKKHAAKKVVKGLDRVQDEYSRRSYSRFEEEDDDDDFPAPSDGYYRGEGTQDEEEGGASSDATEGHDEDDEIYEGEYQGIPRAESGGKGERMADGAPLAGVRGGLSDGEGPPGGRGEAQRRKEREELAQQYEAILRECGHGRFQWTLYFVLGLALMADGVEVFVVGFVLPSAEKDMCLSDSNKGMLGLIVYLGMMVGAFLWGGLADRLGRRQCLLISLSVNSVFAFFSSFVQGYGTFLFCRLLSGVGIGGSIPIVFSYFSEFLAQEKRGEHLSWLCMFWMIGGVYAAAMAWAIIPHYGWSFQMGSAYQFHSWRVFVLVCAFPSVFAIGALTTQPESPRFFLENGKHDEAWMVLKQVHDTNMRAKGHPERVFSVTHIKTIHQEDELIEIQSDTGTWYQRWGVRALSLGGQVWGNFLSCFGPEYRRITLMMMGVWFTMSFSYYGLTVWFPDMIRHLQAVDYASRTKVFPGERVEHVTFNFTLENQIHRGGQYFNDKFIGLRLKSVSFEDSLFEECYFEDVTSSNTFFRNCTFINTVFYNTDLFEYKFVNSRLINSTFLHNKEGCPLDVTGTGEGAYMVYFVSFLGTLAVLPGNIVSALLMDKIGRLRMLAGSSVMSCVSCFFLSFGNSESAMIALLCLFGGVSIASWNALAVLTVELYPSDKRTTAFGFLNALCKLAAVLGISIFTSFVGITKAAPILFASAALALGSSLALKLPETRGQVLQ
UniProt Q7L0J3, whole entry W666A: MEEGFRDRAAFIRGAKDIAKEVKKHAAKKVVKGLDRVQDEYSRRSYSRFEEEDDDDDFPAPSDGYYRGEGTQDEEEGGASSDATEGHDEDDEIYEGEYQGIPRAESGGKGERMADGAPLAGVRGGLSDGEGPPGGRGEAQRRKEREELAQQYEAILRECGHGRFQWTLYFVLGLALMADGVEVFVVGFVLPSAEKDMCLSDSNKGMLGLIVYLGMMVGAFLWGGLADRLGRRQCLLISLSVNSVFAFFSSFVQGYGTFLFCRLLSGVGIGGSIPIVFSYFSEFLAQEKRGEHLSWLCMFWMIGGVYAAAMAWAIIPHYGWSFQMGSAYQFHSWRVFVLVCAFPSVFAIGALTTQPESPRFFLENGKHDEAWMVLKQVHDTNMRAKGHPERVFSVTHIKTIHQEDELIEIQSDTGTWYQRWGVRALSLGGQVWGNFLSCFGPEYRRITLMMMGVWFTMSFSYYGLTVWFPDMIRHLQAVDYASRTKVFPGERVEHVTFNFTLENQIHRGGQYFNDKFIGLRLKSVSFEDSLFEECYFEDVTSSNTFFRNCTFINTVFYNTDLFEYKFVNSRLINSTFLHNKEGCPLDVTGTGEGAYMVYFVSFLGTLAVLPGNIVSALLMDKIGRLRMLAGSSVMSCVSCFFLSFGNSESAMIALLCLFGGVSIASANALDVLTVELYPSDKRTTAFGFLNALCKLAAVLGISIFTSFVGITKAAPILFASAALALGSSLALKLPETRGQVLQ

Tests used:
Test in all cases: 3H-UCB-J (10 nM) binding, effect of mutations (Fig. 3B)
SV2A WT and mutants [1] = molecular target: SV2A WT and mutants (Homo sapiens, UniProt Q7L0J3, C297A); details: C297A, wild-type defined as 100%, tested as the radiolabelled form
SV2A WT and mutants [2] = molecular target: SV2A WT and mutants (Homo sapiens, UniProt Q7L0J3, W666A); details: W666A, wild-type defined as 100%, tested as the radiolabelled form
SV2A WT and mutants [3] = molecular target: SV2A WT and mutants (Homo sapiens, UniProt Q7L0J3, D670A); details: D670A, wild-type defined as 100%, tested as the radiolabelled form

3H-UCB-J Binding (%) (SV2A WT and mutants [1]): 15.08, 7.79, 6.97, 14.26, 18.50, 20.66% | 3H-UCB-J Binding (%) (SV2A WT and mutants [2]): 2.68, 6.94, 9.40, 13.23, 6.91, 10.49% | 3H-UCB-J Binding (%) (SV2A WT and mutants [3]): 4.97, 15.30, 20.47, 20.28, 12.73, 24.16%
SMILES: Cc1cnccc1CN1C[C@@H](c2cc(F)c(F)c(F)c2)CC1=O [UCB-J]

For part of its entries the source gives two or more results. They are shown here; other results are not. The source may hold further records. The values listed for one entry seem to repeat one measurement; one of them may be the mean.
